Source: ChEMBL document CHEMBL3988442, “University of Dundee, Small-Polar-MMV Screening Library” (2021).

Protein sequences, listed by entry. Tags and fused reporters are not part of them.
UniProt I6X8D2, whole entry: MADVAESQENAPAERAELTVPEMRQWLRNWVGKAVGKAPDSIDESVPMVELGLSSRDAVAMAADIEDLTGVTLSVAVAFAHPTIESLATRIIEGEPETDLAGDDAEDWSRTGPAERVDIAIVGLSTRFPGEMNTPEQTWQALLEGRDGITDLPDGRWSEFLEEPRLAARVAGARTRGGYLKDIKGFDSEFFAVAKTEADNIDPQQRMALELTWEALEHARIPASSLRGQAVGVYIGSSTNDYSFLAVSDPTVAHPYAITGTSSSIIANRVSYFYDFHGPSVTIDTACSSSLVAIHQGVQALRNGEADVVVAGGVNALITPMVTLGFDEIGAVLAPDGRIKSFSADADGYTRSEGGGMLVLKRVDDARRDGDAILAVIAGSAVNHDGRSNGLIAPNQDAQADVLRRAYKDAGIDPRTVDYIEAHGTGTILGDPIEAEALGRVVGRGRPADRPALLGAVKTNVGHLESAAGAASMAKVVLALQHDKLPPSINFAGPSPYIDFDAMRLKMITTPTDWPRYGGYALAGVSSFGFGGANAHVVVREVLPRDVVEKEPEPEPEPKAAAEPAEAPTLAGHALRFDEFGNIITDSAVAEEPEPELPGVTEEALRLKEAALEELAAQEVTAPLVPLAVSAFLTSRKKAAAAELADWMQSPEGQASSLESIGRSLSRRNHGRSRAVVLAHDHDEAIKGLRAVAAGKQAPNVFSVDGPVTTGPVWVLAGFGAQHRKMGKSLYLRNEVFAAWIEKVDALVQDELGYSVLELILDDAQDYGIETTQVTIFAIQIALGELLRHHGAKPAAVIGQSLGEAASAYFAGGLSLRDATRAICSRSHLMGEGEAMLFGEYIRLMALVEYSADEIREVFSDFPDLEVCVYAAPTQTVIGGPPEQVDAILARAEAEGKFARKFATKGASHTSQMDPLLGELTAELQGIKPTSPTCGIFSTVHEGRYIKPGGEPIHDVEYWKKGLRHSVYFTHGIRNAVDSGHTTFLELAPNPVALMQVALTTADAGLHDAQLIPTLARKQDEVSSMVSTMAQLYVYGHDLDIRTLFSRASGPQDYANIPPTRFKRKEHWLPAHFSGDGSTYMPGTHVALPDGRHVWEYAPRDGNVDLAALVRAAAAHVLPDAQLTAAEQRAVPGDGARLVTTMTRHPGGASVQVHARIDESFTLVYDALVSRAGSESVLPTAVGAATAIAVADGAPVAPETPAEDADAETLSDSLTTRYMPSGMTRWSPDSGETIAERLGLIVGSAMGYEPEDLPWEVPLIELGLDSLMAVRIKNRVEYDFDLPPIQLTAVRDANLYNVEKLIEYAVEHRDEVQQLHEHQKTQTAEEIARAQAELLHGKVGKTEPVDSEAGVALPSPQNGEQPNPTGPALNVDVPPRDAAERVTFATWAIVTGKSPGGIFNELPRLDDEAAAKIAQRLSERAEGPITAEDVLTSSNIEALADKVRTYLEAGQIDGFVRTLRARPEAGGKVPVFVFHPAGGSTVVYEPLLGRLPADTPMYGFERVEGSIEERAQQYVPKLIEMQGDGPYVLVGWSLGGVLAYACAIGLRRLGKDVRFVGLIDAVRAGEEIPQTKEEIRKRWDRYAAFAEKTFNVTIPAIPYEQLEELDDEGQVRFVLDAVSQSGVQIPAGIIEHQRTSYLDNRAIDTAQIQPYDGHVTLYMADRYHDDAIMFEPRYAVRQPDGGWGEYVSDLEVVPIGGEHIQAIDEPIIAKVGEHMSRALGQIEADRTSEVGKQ

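Enzyme assay of the thioesterase domain of polyketide synthase 13; the read-out is not stated. Target: Polyketide synthase Pks13, Mycobacterium tuberculosis (UniProt I6X8D2). Tested at 30 µM. The record gives no direction; the compounds picked for IC50 retests had high values, so higher reads as stronger inhibition. Size under these conditions: about 67,000 compounds, about 300 of them at 50% or above in at least one test.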

Values are the deposited “Percent Effect”, in %.
The controls that fix the scale are not given in the record; negative values are as filed.
This is an unselected part of the compounds tested.

compound	percent effect
COCCN(Cc1cccnc1)S(=O)(=O)c1ccc(F)cc1C	-13.4%
C=C(C)CN(CC)C(=O)c1cc(C)ccc1NS(C)(=O)=O	-25.98%
O=C(CC1COCCN1)NCCc1nc(Cc2ccccc2)no1 (stereo not drawn)	-26.72%
CC(c1ccncc1)N(CCN(C)C)C(=O)Nc1ccc(Cl)cc1 (stereo not drawn)	-1.275%
OC[C@H]1CCCN1c1nccc(-c2c[nH]nc2C2CCCCC2)n1	-0.6485%
Cc1nnc2n1CCN(C(=O)c1cn(-c3ccccc3)nn1)C2	-6.484%
CNCc1ccc(Oc2cncc(C)n2)cc1	-31.68%
Cc1cc(C)c(CNC(=O)N(C)Cc2cccc(C#N)c2)c(=O)[nH]1	-14.28%
CCc1ccccc1NC(=O)C1CN(C(C)=O)C1	13.98%
CCN(Cc1ccccn1)C1CCN(c2ccccc2)C1=O (stereo not drawn)	-45.59%
CCN(Cc1nc2c(cnn2C)c(=O)[nH]1)c1cccc(F)c1	-8.732%
Cc1nn(C)c(C)c1C1CCCN1CC(=O)NCc1ccccn1 (stereo not drawn)	2.297%
CSCC(=O)NS(=O)(=O)c1ccc(C#N)c(C(F)(F)F)c1	12.37%
CSc1ccc(CNC2CCN(CCc3ccncc3)CC2)cc1	-17.38%
COc1ccc(CNC(=O)Nc2cccnc2N2CCCC2)cc1OC	11.78%
O=C(c1ccncc1)N1CCC2(CCCN(c3ncc(F)cn3)C2)C1 (stereo not drawn)	-15.23%
O=C(c1cnc(Cc2c(Cl)cccc2Cl)nc1O)N1CCNCC1	-41.78%
CC(=O)Nc1nc(C2CCN(C(=O)c3ccncc3)CC2)cs1	9.559%
Cc1cc(C(=O)N2CCCCC2)ccc1NS(C)(=O)=O	-6.743%
Cn1ccnc1CN1CC[C@@H]2[C@@H](CCC(=O)N2CCc2c[nH]cn2)C1	-26.12%
CC[C@H]1NCCC[C@]12CCC(=O)N2Cc1ccncc1	-22.77%
N#CC1(NC(=O)c2ccc(-c3nc(C4CC4)n[nH]3)cc2)CCC1	0.1923%
CCCn1ccnc1CN1CCCC(O)(CN(C)C)CC1 (stereo not drawn)	-6.667%
Cc1ncc(CN2CCc3c(nc(-c4ccccn4)[nH]c3=O)C2)n1C	26.64%
CC(C)c1nc(C2CCCN(C(=O)CCCn3cccn3)C2)no1 (stereo not drawn)	-4.856%
O=C(c1ccco1)N1CCN2C[C@H](Oc3cncnc3)C[C@H]2C1	-0.2883%
CC(O)(CNC(=O)NCc1cccc(-n2cncn2)c1)c1ccco1 (stereo not drawn)	6.036%
CCOc1c(Br)cc(CNCCc2nnc3n2CCCCC3)cc1OC	-33.28%
NC(=O)c1cnc(NC2CCC(c3ccccc3)CC2)c(Cl)c1 (stereo not drawn)	15.19%
CCCc1nnc(N2CCN(c3ccccc3OCC)CC2)o1	-7.953%
NS(=O)(=O)CCNC(=O)CCc1cc(Br)cs1	-13.79%
CCOCc1cccc(NCc2c[nH]nc2-c2cccnc2)c1	-29.14%
COCCN1CCO[C@H]2CN(Cc3cccc(C)n3)C[C@H]21	-8.942%
COc1c(CNC2CCCOc3ccc(F)cc32)c(C(C)C)nn1C (stereo not drawn)	1.658%
COc1ccc(NC(=O)NCCCn2nc3ccccn3c2=O)cc1	8.171%
Cc1csc(NC(=O)[C@@H]2C[C@H]3[C@H](CCN3c3ncccn3)O2)n1	-28.99%
CCOC(=O)N1CCN(C(=O)CCn2ccc3c(OC)cccc32)CC1	-31.13%
CCC(=O)N1CCC(c2ncc3c(n2)CCNC3)CC1	1.878%
O=C(Cc1noc2ccccc12)N1CCC(Nc2cccnn2)CC1	-15.19%
CS(=O)(=O)N1CC(c2nc(N)ncc2-c2ccc(F)cc2)C1	2.672%
Cc1ccc(-c2noc(CN3CCC(c4ccn[nH]4)CC3)n2)cc1	-6.088%
CCCN1C(=O)CC2(CCCNC2)C1=O (stereo not drawn)	-15.05%
CN1CCN(C(=O)C2CCCc3[nH]ncc32)CC1 (stereo not drawn)	-14.28%
Cn1nccc1NCc1cc2cc(F)ccc2o1	21.09%
OCCOc1ccccc1CN1CCCC(O)(CO)C1 (stereo not drawn)	11.69%
CC(C)(C)OC(=O)N1CCCN1C(=O)c1cccc(F)c1F	-9.875%
O=C(Cc1ccc(F)cc1Cl)N1C[C@@H](CN2CCC(O)CC2)[C@@H](CO)C1	-8.897%
CC(NC(=O)NCc1c(F)cccc1Cl)(C(=O)O)c1ccco1 (stereo not drawn)	-16.2%
O=S(=O)(c1ccccc1F)N1CCCCC1c1cc[nH]n1 (stereo not drawn)	-7.977%
CN(C)c1ncc(CNC2CC(=O)N(CCc3cccc(Cl)c3)C2)s1 (stereo not drawn)	-10.31%
O=C(C1=CCCC1)N1C[C@H](Oc2cccnc2)[C@H]2OCCC[C@H]21	27.7%
O=C(Cn1cnc2sccc2c1=O)NCCCc1nnc2ccccn12	4.825%
CCc1nc(C)c([C@H]2CN(C)C[C@@H]2C(=O)Nc2ccc(OC)nc2)[nH]1	-29.33%
Cc1n[nH]c(C)c1NC(=O)CN1CCc2c(nc(C3CC3)n2C)C1	-8.461%
CCn1ncc2c1C(COC)CN(Cc1cccnc1)C2 (stereo not drawn)	-43.3%
Cc1cnccc1Cn1ccnc1C1CCOC1 (stereo not drawn)	-11.36%
CN1CCN(Cc2ccccc2Oc2nccc3occc23)CC1	13%
CNc1snc(C)c1C(=O)N1CCCC(n2ccnc2C(C)C)C1 (stereo not drawn)	-10.09%
Cc1cc(C(=O)N2CCc3ncc(CN4CCCC4)n3CC2)no1	-15.8%
Cc1ccc(CNC(=O)Nc2nnc(C)s2)cn1	-13.71%
CCc1cc(-c2cc[nH]n2)nc(N2CCCC2)n1	-8.144%
CC(=O)N(C)CCc1nc(-c2cc(C(N)=O)co2)cs1	-14.78%
Cc1ocnc1C(=O)N1CCN(CCOc2ccccc2)CC1	-20.97%
CCN(C)C(=O)c1ccc(N(C)Cc2cc(-c3ccncc3)no2)nc1	-12.81%
CC(C)(O)CCc1cccc(C(=O)N2CCC[C@H]2C(N)=O)c1	0.7837%
CC(C)N1CCC(CC(=O)NC(C(=O)O)c2cc(F)ccc2F)CC1 (stereo not drawn)	5.155%
O=C(Nc1cnn(COc2ccc(F)cc2Cl)c1)C1CC1	-14.42%
C[C@@H]1CN(C(=O)C2CCS(=O)(=O)CC2)C[C@@]1(O)C1CC1	-5.838%
Cc1ccc(CN2CC[C@H]3[C@H]2CCN3S(C)(=O)=O)s1	-33.79%
COc1ncc(C2CC(=O)NCc3nc4ccccn4c32)cn1 (stereo not drawn)	-5.29%
COCC(NC(=O)NCc1cccc(C#N)c1)c1ccco1 (stereo not drawn)	-27.9%
NC(=O)C1CCCN(Cc2ccc(C(=O)Nc3cnns3)cc2)C1 (stereo not drawn)	-2.123%
C[C@@H]1C[C@H](C(F)(F)F)n2nc(C3CCN(C(=O)C(C)(C)C)CC3)cc2N1	0.4715%
O=C(NCCc1c[nH]c2ccccc12)C1CCC(Cn2cnnn2)CC1 (stereo not drawn)	0.1526%
Cc1nccn1-c1cc(CNC(=O)CCS(=O)(=O)C2CCCC2)ccn1	-31.95%
COc1cc(N2C[C@H](OCc3cccnc3)[C@H]3OCCC[C@H]32)ncn1	-4.633%
OCCN1CCC(CNCCOCC(F)(F)F)CC1	5.453%
COc1ccc(C)cc1-n1cnnc1C1CCOCC1	-0.357%
CC(=O)c1cccc(NC(=O)Cn2nc(-c3cccs3)oc2=O)c1	-19.34%
Fc1cccc(OC2CCN(CCn3cc4ccccc4n3)CC2)c1	-2.633%
COc1ncccc1CN1CC[C@H]2O[C@H](c3nnc(C)o3)CC[C@H]21	-23.52%
N#Cc1cn(CC(=O)NC2CC2)c2ccc(Br)cc2c1=O	-17.74%
O=C(c1ncccc1O)N1CCc2c(ncnc2N2CCOCC2)C1	-17.29%

Once more, the final 9:

compound,percent effect
Cc1nccn1-c1cc(CNC(=O)CCS(=O)(=O)C2CCCC2)ccn1,-31.95%
COc1cc(N2C[C@H](OCc3cccnc3)[C@H]3OCCC[C@H]32)ncn1,-4.633%
OCCN1CCC(CNCCOCC(F)(F)F)CC1,5.453%
COc1ccc(C)cc1-n1cnnc1C1CCOCC1,-0.357%
CC(=O)c1cccc(NC(=O)Cn2nc(-c3cccs3)oc2=O)c1,-19.34%
Fc1cccc(OC2CCN(CCn3cc4ccccc4n3)CC2)c1,-2.633%
COc1ncccc1CN1CC[C@H]2O[C@H](c3nnc(C)o3)CC[C@H]21,-23.52%
N#Cc1cn(CC(=O)NC2CC2)c2ccc(Br)cc2c1=O,-17.74%
O=C(c1ncccc1O)N1CCc2c(ncnc2N2CCOCC2)C1,-17.29%